Source: article doi:10.1101/2022.11.10.516022

How the values were obtained:
[1] = biological target: ApoL6-HA overexpressed in differentiated 3T3-L1 adipocytes (mouse); test: affinity purification with mass spectrometry
[2] = biological target: HA-tagged ApoL6 (adipoQ-ApoL6 TG transgene) (mouse); test: affinity purification with mass spectrometry

binding [1]: binds
binding [2]: binds
B1: endogenous Perilipin 1 (Plin1) (protein, UniProt Q8CGN5 1-517)
chain: MSMNKGPTLLDGDLPEQENVLQRVLQLPVVSGTCECFQKTYNSTKEAHPLVASVCNAYEKGVQGASNLAAWSMEPVVRRLSTQFTAANELACRGLDHLEEKIPALQYPPEKIASELKGTISTRLRSARNSISVPIASTSDKVLGATLAGCELALGMAKETAEYAANTRVGRLASGGADLALGSIEKVVEFLLPPDKESAPSSGRQRTQKAPKAKPSLVRRVSTLANTLSRHTMQTTAWALKQGHSLAMWIPGVAPLSSLAQWGASAAMQVVSRRQSEVRVPWLHNLAASQDESHDDQTDTEGEETDDEEEEEESEAEENVLREVTALPNPRGLLGGVVHTVQNTLRNTISAVTWAPAAVLGTVGRILHLTPAQAVSSTKGRAMSLSDALKGVTDNVVDTVVHYVPLPRLSLMEPESEFRDIDNPSAEAERKGSGARPASPESTPRPGQPRGSLRSVRGLSAPSCPGLDDKTEASARPGFLAMPREKPARRVSDSFFRPSVMEPILGRAQYSQLRKKS

These are yes or no findings as the source states them, for the method shown. Binding seen in cells or lysates may run through a third protein. These calls come from enrichment with a bait or labelling near it, and not all partners need be listed.
